{"source": "PubChem BioAssay AID1259424 (University of Nebraska Medical Center, 2018)", "screen": "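Seek colon cancer survival genes behaving like KSR1, using a six-gene signature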 (primary screen)", "system": "human HCT116 colon cancer cells", "reagents": "siRNA pool against human genes, 50 nM", "detection": "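Log2 levels of six mRNAs (branched-DNA multiplex), adjusted by two reference genes and the non-targeting median, then scored against the average KSR1 knockdown pattern as Pearson r and euclidean distance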", "direction": "mean correlation with KSR1 profile: higher = expression change more like KSR1 knockdown", "note": "Here is one part, drawn at random, of about 14,000 reagents. 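Higher correlation or smaller distance means closer resemblance to KSR1 loss; control wells, including KSR1 knockdowns, recur on many plates.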 Not all columns of the deposit are shown. Not stated in the record: the time to read-out."}
{"gene knocked down": "SEC14L3 (GeneID 266629)", "mean correlation with KSR1 profile": -0.212}
{"gene knocked down": "MRPL36 (GeneID 64979)", "mean correlation with KSR1 profile": -0.504}
{"gene knocked down": "UBTD2 (GeneID 92181)", "mean correlation with KSR1 profile": -0.59}
{"gene knocked down": "IGBP1 (GeneID 3476)", "mean correlation with KSR1 profile": -0.383}
{"gene knocked down": "TLR4 (GeneID 7099)", "mean correlation with KSR1 profile": 0.424}
{"gene knocked down": "TOP3B (GeneID 8940)", "mean correlation with KSR1 profile": 0.563}
{"gene knocked down": "INSL3 (GeneID 3640)", "mean correlation with KSR1 profile": -0.221}
{"gene knocked down": "MRPL40 (GeneID 64976)", "mean correlation with KSR1 profile": -0.6}
{"gene knocked down": "FBXW10 (GeneID 10517)", "mean correlation with KSR1 profile": -0.668}
{"gene knocked down": "AKT1S1 (GeneID 84335)", "mean correlation with KSR1 profile": -0.439}
{"gene knocked down": "HOXB7 (GeneID 3217)", "mean correlation with KSR1 profile": -0.418}
{"gene knocked down": "PATZ1 (GeneID 23598)", "mean correlation with KSR1 profile": -0.222}
{"gene knocked down": "MFN1 (GeneID 55669)", "mean correlation with KSR1 profile": -0.314}
{"gene knocked down": "CAMK4 (GeneID 814)", "mean correlation with KSR1 profile": 0.121}
{"gene knocked down": "PSMB1 (GeneID 5689)", "mean correlation with KSR1 profile": -0.301}
{"gene knocked down": "TMED5 (GeneID 50999)", "mean correlation with KSR1 profile": -0.214}
{"gene knocked down": "GPR83 (GeneID 10888)", "mean correlation with KSR1 profile": 0.633}
{"gene knocked down": "TXNL1 (GeneID 9352)", "mean correlation with KSR1 profile": -0.758}
{"gene knocked down": "IFNA7 (GeneID 3444)", "mean correlation with KSR1 profile": 0.0138}
{"gene knocked down": "MS4A1 (GeneID 931)", "mean correlation with KSR1 profile": -0.26}

Continued; the last 5 above are carried over.
{"gene knocked down": "TMED5 (GeneID 50999)", "mean correlation with KSR1 profile": -0.214}
{"gene knocked down": "GPR83 (GeneID 10888)", "mean correlation with KSR1 profile": 0.633}
{"gene knocked down": "TXNL1 (GeneID 9352)", "mean correlation with KSR1 profile": -0.758}
{"gene knocked down": "IFNA7 (GeneID 3444)", "mean correlation with KSR1 profile": 0.0138}
{"gene knocked down": "MS4A1 (GeneID 931)", "mean correlation with KSR1 profile": -0.26}
{"gene knocked down": "SOX10 (GeneID 6663)", "mean correlation with KSR1 profile": -0.468}
{"gene knocked down": "EVA1C (GeneID 59271)", "mean correlation with KSR1 profile": -0.614}
{"gene knocked down": "TP53TG3 (GeneID 24150)", "mean correlation with KSR1 profile": -0.4}
{"gene knocked down": "PDGFA (GeneID 5154)", "mean correlation with KSR1 profile": -0.126}
{"gene knocked down": "RILP (GeneID 83547)", "mean correlation with KSR1 profile": 0.179}
{"gene knocked down": "UGT1A3 (GeneID 54659)", "mean correlation with KSR1 profile": 0.845}
{"gene knocked down": "RUSF1 (GeneID 64755)", "mean correlation with KSR1 profile": -0.66}
{"gene knocked down": "MRPL37 (GeneID 51253)", "mean correlation with KSR1 profile": -0.45}
{"gene knocked down": "TTLL2 (GeneID 83887)", "mean correlation with KSR1 profile": 0.844}
{"gene knocked down": "NPHP3 (GeneID 27031)", "mean correlation with KSR1 profile": -0.425}
{"gene knocked down": "ZCCHC2 (GeneID 54877)", "mean correlation with KSR1 profile": 0.546}
{"gene knocked down": "GRIA1 (GeneID 2890)", "mean correlation with KSR1 profile": -0.0494}
{"gene knocked down": "SLC12A7 (GeneID 10723)", "mean correlation with KSR1 profile": -0.195}
{"gene knocked down": "ABHD3 (GeneID 171586)", "mean correlation with KSR1 profile": 0.241}
{"gene knocked down": "CA2 (GeneID 760)", "mean correlation with KSR1 profile": -0.512}
{"gene knocked down": "VDAC3 (GeneID 7419)", "mean correlation with KSR1 profile": 0.0647}
